[ ]: non-standard residue; d: D form.
Test: general procedure: solution-phase peptide synthesis; DCCI/HOBt; azide coupling (iso-amyl nitrite); ONP active ester
Settings: late stage modification step, acetate

H-MAAA[dK]FG-OH
step yield: 78%
